According to paper doi:10.1101/2025.09.01.673436:
Results are given in words; binding and its absence hold for the method and conditions named. In cells and extracts the contact can be indirect. Some results given as binding are weak or reduced against the parent protein; the word gives no strength. Where a sequence is shown, tags or fusion partners need not be part of it.

Target: EGFP-tagged full-length Drosophila Notch (Notch–EGFP), wild type (Drosophila) (UniProt P07207)
Assay: co-IP

- binding: binds
B1: luciferase-tagged Drosophila Notch LNR domain (LNR–Luciferase), wild type (domain or fragment, UniProt P07207 1465-1600)
chain: GSGNDRYAADLEQQRAMCDKRGCTEKQGNGICDSDCNTYACNFDGNDCSLGINPWANCTANECWNKFKNGKCNEECNNAACHYDGHDCERKLKSCDSLFDAYCQKHYGDGFCDYGCNNAECSWDGLDCENKTQSPV
